We go through three molecules from article PMC7874011.

Protein sequences, listed by entry. Tags and fused reporters are not part of them. Residues count along the entry.
UniProt P20029, residues 20-655: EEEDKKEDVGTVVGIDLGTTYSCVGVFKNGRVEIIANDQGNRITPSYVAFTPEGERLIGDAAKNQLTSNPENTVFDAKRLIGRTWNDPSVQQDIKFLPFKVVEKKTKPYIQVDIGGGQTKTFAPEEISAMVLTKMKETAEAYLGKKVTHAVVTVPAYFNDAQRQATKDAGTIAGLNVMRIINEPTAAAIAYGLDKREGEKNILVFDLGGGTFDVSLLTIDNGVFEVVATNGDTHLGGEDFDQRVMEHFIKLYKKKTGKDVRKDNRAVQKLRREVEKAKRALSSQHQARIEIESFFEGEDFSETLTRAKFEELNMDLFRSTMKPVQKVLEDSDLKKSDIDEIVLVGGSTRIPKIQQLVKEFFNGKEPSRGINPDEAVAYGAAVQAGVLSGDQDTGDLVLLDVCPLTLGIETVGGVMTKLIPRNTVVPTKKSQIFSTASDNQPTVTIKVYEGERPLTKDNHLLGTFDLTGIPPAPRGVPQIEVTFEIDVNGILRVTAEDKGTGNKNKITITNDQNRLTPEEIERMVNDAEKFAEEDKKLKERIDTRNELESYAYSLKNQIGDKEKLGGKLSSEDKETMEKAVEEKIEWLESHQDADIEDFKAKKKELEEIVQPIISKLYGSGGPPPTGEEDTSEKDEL
UniProt P06761, residues 19-654: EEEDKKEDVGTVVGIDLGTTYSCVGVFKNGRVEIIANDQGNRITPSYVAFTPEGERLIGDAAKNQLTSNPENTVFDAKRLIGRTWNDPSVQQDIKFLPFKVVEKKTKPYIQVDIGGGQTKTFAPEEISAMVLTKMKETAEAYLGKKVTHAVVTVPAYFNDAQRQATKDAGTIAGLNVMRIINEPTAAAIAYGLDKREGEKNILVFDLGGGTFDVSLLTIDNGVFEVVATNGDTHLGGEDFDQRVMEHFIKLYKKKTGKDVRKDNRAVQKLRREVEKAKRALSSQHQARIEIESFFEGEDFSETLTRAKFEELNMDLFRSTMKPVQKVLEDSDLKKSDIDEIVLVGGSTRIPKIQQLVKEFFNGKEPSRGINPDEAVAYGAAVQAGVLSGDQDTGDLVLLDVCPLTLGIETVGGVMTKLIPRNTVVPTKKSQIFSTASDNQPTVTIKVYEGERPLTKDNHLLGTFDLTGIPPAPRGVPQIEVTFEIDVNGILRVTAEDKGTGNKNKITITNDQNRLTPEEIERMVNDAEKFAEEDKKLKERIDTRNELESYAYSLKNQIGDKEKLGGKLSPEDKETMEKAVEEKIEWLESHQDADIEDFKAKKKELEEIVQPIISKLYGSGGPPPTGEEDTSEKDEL

These are yes or no findings as the source states them, for the method shown. Binding seen in cells or lysates may run through a third protein. Some binding calls cover weakened binding; strength is not graded here.

One assay concerns the target GST-SOCS3 fusion protein (UniProt O35718). The assay can be described thus: pull-down; in vitro GST pull-down: GRP78 expressed in HEK293 cells retained by GST or GST-SOCS3 fusion protein; immunoblot after binding reactions; only the target purified.
The target of a further assay is Flag-GRP78 (UniProt P20029). The assay can be described thus: co-IP; HEK293T (legend: HEK293) cells transfected with Myc-SOCS3 and Flag-GRP78; lysates immunoprecipitated with anti-Flag antibody; immunoblot with anti-Flag and anti-Myc.
In assay [1] the target is Glucose regulatory protein 78 (GRP78), endogenous in neonatal rat cardiomyocytes (rat (endogenous in neonatal rat cardiomyocytes)) (UniProt P06761). The assay can be described thus: co-IP; primary cardiomyocyte (NRCM) lysates immunoprecipitated with anti-GRP78 antibody or IgG control; immunoblot for SOCS3 and GRP78.

Consider “GRP78 expressed in HEK293 cells (GST pull-down) (from UniProt P20029 20-655)”, for which the binding entry with GST-SOCS3 fusion protein is “binds”.

With Myc-SOCS3 (from UniProt O35718 1-225), in the assay with Flag-GRP78, the binding entry is “binds”.

B1: Suppressor of cytokine signaling-3 (SOCS3), endogenous in neonatal rat cardiomyocytes (protein, UniProt O88583 1-225)
chain: MVTHSKFPAAGMSRPLDTSLRLKTFSSKSEYQLVVNAVRKLQESGFYWSAVTGGEANLLLSAEPAGTFLIRDSSDQRHFFTLSVETQSGTKNLRIQCEGGSFSLQSDPRSTQPVPRFDCVLKLVHHYMPPPGAPSFSLPPTEPSFEVQEQPPAQALPGGTPKRAYYIYSGGEKIPLVLSRPLSSNVATLQHLCRKTVNGHLDSYEKVTQLPGPIREFLDQYDAPL
Consider B1, for which the binding entry in assay [1] is on record as “binds”.
